Tests used:
CDK9/cyclin K = biological target: T1, CDK9/cyclin K (Homo sapiens, UniProt P50750); experiment: 375-member kinase panel; type: biochemical; settings: Run 1, Run 2
T1 construct: purchased Reaction Biology Corporation
Description: […]. To further investigate the off-target activity of these analogues, we profiled them in a 375-member kinase panel. […] […]. […] […].

Protein sequences, listed by entry. Tags and fused reporters are not part of them. Lines headed by an entry give the natural chain unless they say otherwise; changes in a name come on top. Residues count along the entry.
UniProt P50750, whole entry: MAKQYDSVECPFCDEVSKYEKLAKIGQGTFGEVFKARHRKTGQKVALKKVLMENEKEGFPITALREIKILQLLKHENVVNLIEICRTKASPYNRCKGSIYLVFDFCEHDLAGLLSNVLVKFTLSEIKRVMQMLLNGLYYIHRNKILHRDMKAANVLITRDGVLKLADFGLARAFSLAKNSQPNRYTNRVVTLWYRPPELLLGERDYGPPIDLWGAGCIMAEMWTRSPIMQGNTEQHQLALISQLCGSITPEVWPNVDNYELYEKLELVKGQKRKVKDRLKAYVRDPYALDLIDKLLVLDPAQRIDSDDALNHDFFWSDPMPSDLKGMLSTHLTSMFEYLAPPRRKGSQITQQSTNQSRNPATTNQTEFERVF
UniProt P08069, 31-1367: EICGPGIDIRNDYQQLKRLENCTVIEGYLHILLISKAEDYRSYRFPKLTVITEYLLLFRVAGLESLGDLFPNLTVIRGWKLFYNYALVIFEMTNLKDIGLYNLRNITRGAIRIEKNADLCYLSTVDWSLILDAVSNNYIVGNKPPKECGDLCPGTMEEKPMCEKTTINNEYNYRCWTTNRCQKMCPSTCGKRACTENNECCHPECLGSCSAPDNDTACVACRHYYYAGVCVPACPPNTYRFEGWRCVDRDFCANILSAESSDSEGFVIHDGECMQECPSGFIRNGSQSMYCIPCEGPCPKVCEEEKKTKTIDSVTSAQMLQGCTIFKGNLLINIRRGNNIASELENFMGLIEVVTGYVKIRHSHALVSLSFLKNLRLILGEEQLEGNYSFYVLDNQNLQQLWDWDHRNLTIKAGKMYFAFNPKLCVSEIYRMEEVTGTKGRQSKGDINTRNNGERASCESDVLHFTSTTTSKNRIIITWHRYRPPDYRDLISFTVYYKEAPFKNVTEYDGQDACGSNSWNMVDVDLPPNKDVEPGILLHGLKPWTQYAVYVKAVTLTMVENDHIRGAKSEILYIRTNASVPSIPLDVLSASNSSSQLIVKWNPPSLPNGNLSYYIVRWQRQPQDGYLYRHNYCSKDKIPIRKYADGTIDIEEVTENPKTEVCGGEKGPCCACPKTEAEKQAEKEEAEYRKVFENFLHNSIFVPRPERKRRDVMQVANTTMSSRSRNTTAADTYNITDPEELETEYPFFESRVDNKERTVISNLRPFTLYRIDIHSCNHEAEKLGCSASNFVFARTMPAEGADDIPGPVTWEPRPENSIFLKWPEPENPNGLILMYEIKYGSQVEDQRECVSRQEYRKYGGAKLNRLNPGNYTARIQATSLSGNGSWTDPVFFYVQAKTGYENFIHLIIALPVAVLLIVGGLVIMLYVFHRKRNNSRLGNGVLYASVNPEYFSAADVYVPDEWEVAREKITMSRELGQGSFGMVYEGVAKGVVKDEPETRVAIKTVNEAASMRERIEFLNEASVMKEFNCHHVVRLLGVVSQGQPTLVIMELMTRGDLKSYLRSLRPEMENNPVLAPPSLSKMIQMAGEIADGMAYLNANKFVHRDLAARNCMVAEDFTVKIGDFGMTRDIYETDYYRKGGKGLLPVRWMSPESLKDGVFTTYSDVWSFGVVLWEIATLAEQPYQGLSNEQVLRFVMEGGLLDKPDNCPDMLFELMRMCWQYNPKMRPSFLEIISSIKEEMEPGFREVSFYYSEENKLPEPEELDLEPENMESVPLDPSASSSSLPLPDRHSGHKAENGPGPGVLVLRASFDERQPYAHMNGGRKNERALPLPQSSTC
UniProt P22612, whole entry: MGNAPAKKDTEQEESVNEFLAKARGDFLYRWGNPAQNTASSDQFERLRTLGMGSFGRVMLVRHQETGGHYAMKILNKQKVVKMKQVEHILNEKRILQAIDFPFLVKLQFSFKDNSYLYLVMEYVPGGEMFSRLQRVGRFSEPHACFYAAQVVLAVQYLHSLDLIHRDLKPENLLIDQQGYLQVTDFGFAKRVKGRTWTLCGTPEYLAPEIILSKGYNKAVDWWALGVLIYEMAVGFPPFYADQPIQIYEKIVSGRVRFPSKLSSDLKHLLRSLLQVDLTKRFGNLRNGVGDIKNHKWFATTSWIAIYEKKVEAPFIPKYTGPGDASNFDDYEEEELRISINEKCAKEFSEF
UniProt P51812, whole entry: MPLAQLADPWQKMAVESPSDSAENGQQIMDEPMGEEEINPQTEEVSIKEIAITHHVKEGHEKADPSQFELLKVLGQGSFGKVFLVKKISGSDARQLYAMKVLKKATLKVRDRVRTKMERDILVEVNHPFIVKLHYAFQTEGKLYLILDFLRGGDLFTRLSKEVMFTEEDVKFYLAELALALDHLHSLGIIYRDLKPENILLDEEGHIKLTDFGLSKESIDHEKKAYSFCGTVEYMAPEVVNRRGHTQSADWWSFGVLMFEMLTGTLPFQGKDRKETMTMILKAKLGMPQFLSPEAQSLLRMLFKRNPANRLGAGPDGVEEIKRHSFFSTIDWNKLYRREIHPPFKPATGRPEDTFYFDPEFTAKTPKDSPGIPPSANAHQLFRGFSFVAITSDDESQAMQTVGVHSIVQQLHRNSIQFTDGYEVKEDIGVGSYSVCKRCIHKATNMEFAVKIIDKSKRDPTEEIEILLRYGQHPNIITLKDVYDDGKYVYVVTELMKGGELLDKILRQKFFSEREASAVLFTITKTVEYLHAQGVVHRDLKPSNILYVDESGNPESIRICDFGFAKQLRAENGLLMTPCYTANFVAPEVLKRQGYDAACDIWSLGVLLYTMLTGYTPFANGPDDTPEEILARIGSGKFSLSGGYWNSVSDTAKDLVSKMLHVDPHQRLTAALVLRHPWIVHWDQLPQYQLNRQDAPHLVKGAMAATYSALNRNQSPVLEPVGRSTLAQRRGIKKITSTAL
UniProt Q06418, 41-890: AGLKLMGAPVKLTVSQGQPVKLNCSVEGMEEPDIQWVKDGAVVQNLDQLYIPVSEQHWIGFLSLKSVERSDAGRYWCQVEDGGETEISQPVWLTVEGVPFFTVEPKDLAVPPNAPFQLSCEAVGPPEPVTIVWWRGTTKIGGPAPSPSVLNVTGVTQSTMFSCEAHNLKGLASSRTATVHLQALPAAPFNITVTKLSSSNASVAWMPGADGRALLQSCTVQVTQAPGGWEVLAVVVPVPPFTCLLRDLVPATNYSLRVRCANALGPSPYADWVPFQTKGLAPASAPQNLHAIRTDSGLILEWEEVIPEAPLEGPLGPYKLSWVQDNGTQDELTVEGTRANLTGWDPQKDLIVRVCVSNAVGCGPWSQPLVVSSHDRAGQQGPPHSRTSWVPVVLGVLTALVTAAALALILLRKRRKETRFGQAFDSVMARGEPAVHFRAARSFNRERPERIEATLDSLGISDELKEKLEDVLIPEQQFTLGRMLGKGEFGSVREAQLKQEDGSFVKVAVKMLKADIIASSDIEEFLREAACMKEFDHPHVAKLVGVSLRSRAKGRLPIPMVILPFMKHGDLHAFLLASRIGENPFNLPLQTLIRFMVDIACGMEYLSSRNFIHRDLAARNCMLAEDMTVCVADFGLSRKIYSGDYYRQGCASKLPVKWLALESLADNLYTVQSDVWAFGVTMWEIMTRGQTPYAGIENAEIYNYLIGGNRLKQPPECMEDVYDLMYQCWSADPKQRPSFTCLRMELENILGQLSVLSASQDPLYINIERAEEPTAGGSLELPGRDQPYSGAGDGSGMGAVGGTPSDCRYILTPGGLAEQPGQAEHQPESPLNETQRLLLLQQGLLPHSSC
UniProt O94921: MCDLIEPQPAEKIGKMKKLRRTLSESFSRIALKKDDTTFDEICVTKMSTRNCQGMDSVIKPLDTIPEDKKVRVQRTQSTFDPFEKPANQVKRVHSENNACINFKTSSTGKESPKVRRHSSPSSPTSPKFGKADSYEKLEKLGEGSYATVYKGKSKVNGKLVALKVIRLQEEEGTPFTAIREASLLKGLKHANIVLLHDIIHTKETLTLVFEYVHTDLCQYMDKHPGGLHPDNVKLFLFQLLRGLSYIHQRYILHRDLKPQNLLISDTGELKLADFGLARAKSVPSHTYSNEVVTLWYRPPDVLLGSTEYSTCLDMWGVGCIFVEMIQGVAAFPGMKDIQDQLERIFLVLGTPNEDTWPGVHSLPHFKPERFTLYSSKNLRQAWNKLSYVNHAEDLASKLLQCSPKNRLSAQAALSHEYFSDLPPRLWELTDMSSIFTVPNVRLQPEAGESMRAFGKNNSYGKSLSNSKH
UniProt Q8N752: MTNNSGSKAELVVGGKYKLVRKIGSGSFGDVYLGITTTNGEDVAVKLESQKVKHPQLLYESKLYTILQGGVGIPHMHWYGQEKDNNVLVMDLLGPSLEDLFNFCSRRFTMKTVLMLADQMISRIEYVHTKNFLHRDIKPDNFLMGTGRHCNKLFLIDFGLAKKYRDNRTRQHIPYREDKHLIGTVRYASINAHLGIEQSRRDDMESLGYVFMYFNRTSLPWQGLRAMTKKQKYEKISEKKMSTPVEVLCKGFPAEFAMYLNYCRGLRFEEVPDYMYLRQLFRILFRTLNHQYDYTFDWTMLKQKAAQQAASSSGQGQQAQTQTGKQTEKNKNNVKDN
UniProt Q9UEE5: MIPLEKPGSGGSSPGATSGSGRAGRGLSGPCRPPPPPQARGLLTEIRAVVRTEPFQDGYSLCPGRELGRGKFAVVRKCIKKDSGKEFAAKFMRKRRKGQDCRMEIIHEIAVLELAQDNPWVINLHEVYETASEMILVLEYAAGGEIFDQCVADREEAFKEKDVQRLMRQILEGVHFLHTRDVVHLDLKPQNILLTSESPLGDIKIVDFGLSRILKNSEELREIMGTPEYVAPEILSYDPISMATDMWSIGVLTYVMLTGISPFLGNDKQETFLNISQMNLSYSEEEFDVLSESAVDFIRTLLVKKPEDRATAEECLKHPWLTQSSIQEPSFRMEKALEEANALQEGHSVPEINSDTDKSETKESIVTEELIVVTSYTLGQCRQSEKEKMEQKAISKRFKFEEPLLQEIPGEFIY
UniProt P05771, whole entry: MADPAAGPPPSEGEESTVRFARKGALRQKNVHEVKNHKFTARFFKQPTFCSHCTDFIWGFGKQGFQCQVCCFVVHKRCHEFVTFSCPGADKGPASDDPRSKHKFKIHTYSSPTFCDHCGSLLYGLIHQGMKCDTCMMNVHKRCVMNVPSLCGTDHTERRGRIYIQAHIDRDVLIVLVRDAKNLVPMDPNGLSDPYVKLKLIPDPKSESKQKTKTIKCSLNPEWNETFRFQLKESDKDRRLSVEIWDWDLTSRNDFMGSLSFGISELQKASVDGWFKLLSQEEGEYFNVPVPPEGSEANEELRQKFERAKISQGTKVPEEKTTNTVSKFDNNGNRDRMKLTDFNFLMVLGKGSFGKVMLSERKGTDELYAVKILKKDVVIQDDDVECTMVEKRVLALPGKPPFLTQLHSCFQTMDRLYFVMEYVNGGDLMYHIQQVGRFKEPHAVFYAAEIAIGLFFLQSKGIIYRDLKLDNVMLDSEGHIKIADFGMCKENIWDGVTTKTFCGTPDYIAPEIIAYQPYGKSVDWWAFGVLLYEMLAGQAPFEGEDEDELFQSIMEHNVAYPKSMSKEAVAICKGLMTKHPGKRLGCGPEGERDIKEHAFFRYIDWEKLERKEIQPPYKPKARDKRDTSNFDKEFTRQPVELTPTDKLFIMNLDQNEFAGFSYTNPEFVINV
UniProt Q86UE8, whole entry: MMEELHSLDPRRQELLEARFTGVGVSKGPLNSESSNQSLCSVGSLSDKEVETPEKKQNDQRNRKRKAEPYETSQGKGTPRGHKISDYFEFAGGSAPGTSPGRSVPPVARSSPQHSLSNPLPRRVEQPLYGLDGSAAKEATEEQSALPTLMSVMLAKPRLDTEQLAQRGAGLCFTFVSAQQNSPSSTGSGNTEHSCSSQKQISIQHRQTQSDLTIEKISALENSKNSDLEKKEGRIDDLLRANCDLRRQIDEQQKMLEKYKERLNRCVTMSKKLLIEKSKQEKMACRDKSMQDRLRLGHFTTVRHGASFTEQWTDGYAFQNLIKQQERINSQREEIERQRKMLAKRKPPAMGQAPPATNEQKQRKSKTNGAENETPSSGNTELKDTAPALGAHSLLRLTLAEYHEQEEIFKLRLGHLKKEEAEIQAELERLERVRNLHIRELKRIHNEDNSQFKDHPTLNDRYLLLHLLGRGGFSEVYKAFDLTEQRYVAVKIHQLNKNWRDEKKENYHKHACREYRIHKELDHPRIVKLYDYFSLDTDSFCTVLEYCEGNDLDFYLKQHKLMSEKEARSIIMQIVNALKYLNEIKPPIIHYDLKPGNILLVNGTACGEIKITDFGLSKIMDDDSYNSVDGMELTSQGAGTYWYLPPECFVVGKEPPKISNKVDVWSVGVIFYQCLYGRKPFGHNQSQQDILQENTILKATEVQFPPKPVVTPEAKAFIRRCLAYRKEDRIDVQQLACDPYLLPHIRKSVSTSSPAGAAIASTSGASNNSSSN

c-MET = c-MET (Homo sapiens, UniProt P08581); settings: 1 μM; Run 1, Run 2
CAMK1a = CAMK1a (Homo sapiens, UniProt Q14012); settings: 1 μM; Run 1, Run 2
CDK16/cyclin Y (PCTAIRE) = CDK16/cyclin Y (PCTAIRE) (Homo sapiens, UniProt Q00536); settings: 1 μM; Run 1, Run 2
CDK7/cyclin H = CDK7/cyclin H (Homo sapiens, UniProt P50613); settings: 1 μM; Run 1, Run 2
CDK9/cyclin T1 [1] = biological target: T2, CDK9/cyclin T1 (Homo sapiens, UniProt P50750); settings: 1 μM; Run 1, Run 2
CDK9/cyclin T2 = CDK9/cyclin T2 (Homo sapiens, UniProt P50750); settings: 1 μM; Run 1, Run 2
EPHB4 = EPHB4 (Homo sapiens, UniProt P54760); settings: 1 μM; Run 1, Run 2
FGFR2 [2] = biological target: T3, FGFR2 (Homo sapiens, UniProt P21802); settings: 1 μM; Run 1, Run 2
HIPK1 = HIPK1 (Homo sapiens, UniProt Q86Z02); settings: 1 μM; Run 1, Run 2
IGF1R = IGF1R (Homo sapiens, UniProt P08069); settings: 1 μM; Run 1, Run 2
ITK = ITK (Homo sapiens, UniProt Q08881); settings: 1 μM; Run 1, Run 2
MEK5 = MEK5 (Homo sapiens, UniProt Q13163); settings: 1 μM; Run 1, Run 2
MNK1 = MNK1 (Homo sapiens, UniProt Q9BUB5); settings: 1 μM; Run 1, Run 2
P38b/MAPK11 = P38b/MAPK11 (Homo sapiens, UniProt Q15759); settings: 1 μM; Run 1, Run 2
PKAcg = PKAcg (Homo sapiens, UniProt P22612); settings: 1 μM; Run 1, Run 2
RSK2 = RSK2 (Homo sapiens, UniProt P51812); settings: 1 μM; Run 1, Run 2
TYRO3/SKY = TYRO3/SKY (Homo sapiens, UniProt Q06418); settings: 1 μM; Run 1, Run 2
ABL2/ARG = ABL2/ARG (Homo sapiens, UniProt P42684); experiment: biochemical; settings: read-out: % enzyme activity, 1 μM; Run 1, Run 2
c-MER = c-MER (Homo sapiens, UniProt Q12866); experiment: biochemical; settings: read-out: % enzyme activity, 1 μM; Run 1, Run 2
CAMK1g = CAMK1g (Homo sapiens, UniProt Q96NX5); experiment: biochemical; settings: read-out: % enzyme activity, 1 μM; Run 1, Run 2
CDK14/cyclin Y (PFTK1) = CDK14/cyclin Y (PFTK1) (Homo sapiens, UniProt O94921); experiment: biochemical; settings: read-out: % enzyme activity, 1 μM; Run 1, Run 2
CDK9/cyclin T1 [3] = biological target: T2, CDK9/cyclin T1; experiment: biochemical; settings: read-out: % enzyme activity, 1 μM; Run 1, Run 2
CK1a1L = CK1a1L (Homo sapiens, UniProt Q8N752); experiment: biochemical; settings: read-out: % enzyme activity, 1 μM; Run 1, Run 2
CK1g1 = CK1g1 (Homo sapiens, UniProt Q9HCP0); experiment: biochemical; settings: read-out: % enzyme activity, 1 μM; Run 1, Run 2
CLK2 = CLK2 (Homo sapiens, UniProt P49760); experiment: biochemical; settings: read-out: % enzyme activity, 1 μM; Run 1, Run 2
DRAK1/STK17A = DRAK1/STK17A (Homo sapiens, UniProt Q9UEE5); experiment: biochemical; settings: read-out: % enzyme activity, 1 μM; Run 1, Run 2
EPHA3 = EPHA3 (Homo sapiens, UniProt P29320); experiment: biochemical; settings: read-out: % enzyme activity, 1 μM; Run 1, Run 2
EPHA7 = EPHA7 (Homo sapiens, UniProt Q15375); experiment: biochemical; settings: read-out: % enzyme activity, 1 μM; Run 1, Run 2
FGFR2 [4] = biological target: T3, FGFR2; experiment: biochemical; settings: read-out: % enzyme activity, 1 μM; Run 1, Run 2
HIPK4 = HIPK4 (Homo sapiens, UniProt Q8NE63); experiment: biochemical; settings: read-out: % enzyme activity, 1 μM; Run 1, Run 2
KDR/VEGFR2 = KDR/VEGFR2 (Homo sapiens, UniProt P35968); experiment: biochemical; settings: read-out: % enzyme activity, 1 μM; Run 1, Run 2
MEKK3 = MEKK3 (Homo sapiens, UniProt Q99759); experiment: biochemical; settings: read-out: % enzyme activity, 1 μM; Run 1, Run 2
PKCb1 = PKCb1 (Homo sapiens, UniProt P05771); experiment: biochemical; settings: read-out: % enzyme activity, 1 μM; Run 1, Run 2
PKG1a = PKG1a (Homo sapiens, UniProt Q13976); experiment: biochemical; settings: read-out: % enzyme activity, 1 μM; Run 1, Run 2
PKG1b = PKG1b (Homo sapiens, UniProt Q13976); experiment: biochemical; settings: read-out: % enzyme activity, 1 μM; Run 1, Run 2
RAF1 = RAF1 (Homo sapiens, UniProt P04049); experiment: biochemical; settings: read-out: % enzyme activity, 1 μM; Run 1, Run 2
SRMS = SRMS (Homo sapiens, UniProt Q9H3Y6); experiment: biochemical; settings: read-out: % enzyme activity, 1 μM; Run 1, Run 2
TIE2/TEK = TIE2/TEK (Homo sapiens, UniProt Q02763); experiment: biochemical; settings: read-out: % enzyme activity, 1 μM; Run 1, Run 2
TLK2 = TLK2 (Homo sapiens, UniProt Q86UE8); experiment: biochemical; settings: read-out: % enzyme activity, 1 μM; Run 1, Run 2
TTBK2 = TTBK2 (Homo sapiens, UniProt Q6IQ55); experiment: biochemical; settings: read-out: % enzyme activity, 1 μM; Run 1, Run 2

SMILES: COc1cc(-c2cncc(-c3ccc(N4CCN(C(C)C)CC4)cc3)c2C)cc(F)c1C(N)=O [Compound 26b, 2-Fluoro-4-(5-(4-(4-isopropylpiperazin-1-yl)phenyl)-4-methylpyridin-3-yl)-6-methoxybenzamide]
- % enzyme activity (CDK9/cyclin K; 1 μM): 104.69%
- remaining activity at 1 µM (CDK9/cyclin K; read-out: % enzyme activity, 1 μM): 106%
- % enzyme activity (c-MET): 98.41%
- % enzyme activity (CAMK1a): 91.83%
- % enzyme activity (CDK16/cyclin Y (PCTAIRE)): 93.46%
- % enzyme activity (CDK7/cyclin H): 101.47%
- % enzyme activity (CDK9/cyclin T1 [1]): 92.35%
- % enzyme activity (CDK9/cyclin T2): 102.02%
- % enzyme activity (EPHB4): 85.87%
- % enzyme activity (FGFR2 [2]): 97.43%
- % enzyme activity (HIPK1): 99.62%
- % enzyme activity (IGF1R): 99.60%
- % enzyme activity (ITK): 95.85%
- % enzyme activity (MEK5): 93.44%
- % enzyme activity (MNK1): 59.43%
- % enzyme activity (P38b/MAPK11): 99.99%
- % enzyme activity (PKAcg): 88.31%
- % enzyme activity (RSK2): 97.24%
- % enzyme activity (TYRO3/SKY): 95.17%
- remaining activity at 1 µM (ABL2/ARG): 98.8%
- remaining activity at 1 µM (c-MER): 97%
- remaining activity at 1 µM (CAMK1g): 99%
- remaining activity at 1 µM (CDK14/cyclin Y (PFTK1)): 97.8%
- remaining activity at 1 µM (CDK9/cyclin T1 [3]): 93.5%
- remaining activity at 1 µM (CK1a1L): 104%
- remaining activity at 1 µM (CK1g1): 61.1%
- remaining activity at 1 µM (CLK2): 88.3%
- remaining activity at 1 µM (DRAK1/STK17A): 97%
- remaining activity at 1 µM (EPHA3): 101%
- remaining activity at 1 µM (EPHA7): 103%
- remaining activity at 1 µM (FGFR2 [4]): 97.8%
- remaining activity at 1 µM (HIPK4): 104%
- remaining activity at 1 µM (KDR/VEGFR2): 97.3%
- remaining activity at 1 µM (MEKK3): 99.8%
- remaining activity at 1 µM (PKCb1): 87.7%
- remaining activity at 1 µM (PKG1a): 104%
- remaining activity at 1 µM (PKG1b): 99.5%
- remaining activity at 1 µM (RAF1): 85%
- remaining activity at 1 µM (SRMS): 98.8%
- remaining activity at 1 µM (TIE2/TEK): 93.1%
- remaining activity at 1 µM (TLK2): 95.2%
- remaining activity at 1 µM (TTBK2): 98%

Source: article PMC8213057, “Targeting ALK2: An Open Science Approach to Developing Therapeutics for the Treatment of Diffuse Intrinsic Pontine Glioma” (Journal of Medicinal Chemistry, 2020)
